PubChem BioAssay AID1159578, Peter MacCallum Cancer Centre | 2015
Purpose: 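Genome-wide hunt for genes controlling movement of lymphatic endothelial cells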 (primary screen). Cells: human lymphatic endothelial cells. Knock-down reagent: siRNA pool against human genes, 40 nM. Duration: 48 h after transfection. Detection: 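Cells stained with dye and imaged after a scratch; covered wound area and nuclei counted, duplicates averaged, migration set against mock wells and turned into a robust z-score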. Direction: migration robust z-score: higher = faster migration into the scratch; migration relative to mock: higher = more scratch area covered than mock; nuclei per well: higher = more cells in the well. Active means: 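Migration changed when robust z exceeds 2 or falls below -2 and mean nuclei number is at least 3300; otherwise not called changed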. Calls: active = migration changed; inactive = no migration change, or too few cells.
The whole screen tested about 18,000 reagents; this is a random part of them. About 1,030 of all reagents (5.7%) count as active. 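Inactive calls also include pools with fewer than 3300 nuclei, whose migration was not assessed.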 Raw values vary from plate to plate and are shown uncorrected. Reagent sequences are not shown.

Target gene,migration robust z-score,migration class with cell-count check,migration relative to mock,"nuclei per well, duplicate mean",outcome
C11orf87,-1.64,migration z between -2 and 2; enough cells,0.46,5038,inactive
GABRP,-1.03,migration z between -2 and 2; enough cells,0.6,5283,inactive
ACSM6,1.4,migration z between -2 and 2; enough cells,1.25,5702,inactive
POLR2F,-1.55,migration z between -2 and 2; enough cells,0.5,3836,inactive
TMEM130,-1.43,migration z between -2 and 2; enough cells,0.52,6096,inactive
CCND3,1.58,migration z between -2 and 2; enough cells,1.29,5382,inactive
CLCF1,0.1,migration z between -2 and 2; enough cells,0.82,5898,inactive
RHOT1,0.06,migration z between -2 and 2; enough cells,0.9,6476,inactive
TFDP2,0.78,migration z between -2 and 2; enough cells,0.96,4652,inactive
GPR161,-0.42,migration z between -2 and 2; enough cells,0.73,5032,inactive
L1CAM-AS1,3.55,migration z above 2; enough cells,1.81,5686,active
ESD,-0.64,migration z between -2 and 2; enough cells,0.72,6821,inactive
ZDHHC12,1.4,migration z between -2 and 2; enough cells,1.25,5838,inactive
CMPK2,-0.06,migration z between -2 and 2; enough cells,0.87,5508,inactive
NUDT22,-1.23,migration z between -2 and 2; enough cells,0.56,7652,inactive
C18orf32,3.04,migration z above 2; enough cells,1.67,5854,active
MRPL2,-3.51,under 3300 nuclei; migration not judged,-0.03,834,inactive

Copied from the list:
ACSM6, migration robust z-score: 1.4
Result of CMPK2 under “migration robust z-score”: -0.06
TFDP2, outcome: inactive
CLCF1, nuclei per well, duplicate mean = 5898
Under “outcome”, TMEM130 has inactive
For “outcome”, ZDHHC12 is entered as inactive

Further entries follow.
Target gene,migration robust z-score,migration class with cell-count check,migration relative to mock,"nuclei per well, duplicate mean",outcome
HCRT,-0.62,migration z between -2 and 2; enough cells,0.72,6042,inactive
CSNK1G3,-3.38,migration z below -2; enough cells,0.16,3527,active
PMS2,-0.13,migration z between -2 and 2; enough cells,0.78,5529,inactive
AFP,-0.68,migration z between -2 and 2; enough cells,0.68,4390,inactive
FUBP3,0.6,migration z between -2 and 2; enough cells,1.04,5687,inactive
DCAF11,1.19,migration z between -2 and 2; enough cells,1.2,6012,inactive
GRSF1,0.79,migration z between -2 and 2; enough cells,1.09,4232,inactive
CALCOCO1,-2.43,migration z below -2; enough cells,0.26,4990,active
HEXIM2,-0.86,migration z between -2 and 2; enough cells,0.66,6420,inactive
TONSL,-0.86,migration z between -2 and 2; enough cells,0.66,6578,inactive
C19orf73,-1.18,migration z between -2 and 2; enough cells,0.57,5314,inactive
OR5T2,0.92,migration z between -2 and 2; enough cells,1.12,5939,inactive
KRT31,0.3,migration z between -2 and 2; enough cells,0.97,5681,inactive
ELP1,0.24,migration z between -2 and 2; enough cells,0.85,5536,inactive
LCN15,0.21,migration z between -2 and 2; enough cells,0.94,5580,inactive
NRK,0,migration z between -2 and 2; enough cells,0.8,4757,inactive
NIPA1,-2.54,under 3300 nuclei; migration not judged,0.24,3010,inactive
EVPL,0.89,migration z between -2 and 2; enough cells,1.12,6184,inactive
IAH1,-0.81,migration z between -2 and 2; enough cells,0.68,5548,inactive
MOAP1,1.31,migration z between -2 and 2; enough cells,1.23,5027,inactive
SPINK4,-0.6,migration z between -2 and 2; enough cells,0.73,4631,inactive
ZNF709,0.56,migration z between -2 and 2; enough cells,1.03,5969,inactive
